Values joined by “and” are separate entries in the source; they are usually repeats but may differ in a detail not shown here. Equal entries are not always repeated. The source gives many values for each of these; only a part stands here.
Molecular target: T1, TbPFK (Trypanosoma brucei brucei, UniProt O15648)
T1 construct: made in house; host or cells: Escherichia coli C41 (pET28a, codon optimised gene)
T1 sequence (O15648 1-487): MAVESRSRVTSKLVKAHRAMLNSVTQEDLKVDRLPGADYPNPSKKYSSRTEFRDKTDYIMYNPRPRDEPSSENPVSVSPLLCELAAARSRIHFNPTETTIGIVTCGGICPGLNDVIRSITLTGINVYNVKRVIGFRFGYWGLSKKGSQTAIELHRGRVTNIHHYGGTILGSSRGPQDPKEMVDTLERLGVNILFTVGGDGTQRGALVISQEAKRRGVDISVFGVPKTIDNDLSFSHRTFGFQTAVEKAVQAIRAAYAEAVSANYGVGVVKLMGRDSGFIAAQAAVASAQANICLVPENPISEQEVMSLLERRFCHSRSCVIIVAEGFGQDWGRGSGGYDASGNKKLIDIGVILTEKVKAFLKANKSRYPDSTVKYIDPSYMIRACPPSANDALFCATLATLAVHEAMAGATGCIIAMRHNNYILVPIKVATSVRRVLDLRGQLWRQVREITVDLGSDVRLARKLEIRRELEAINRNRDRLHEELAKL
Test: ALDO/G3PDH/TIM linked enzyme assay for measuring PFK inhibition
Assay type: biochemical
Parameters: key: absorbance at 340 nm (NADH)
Procedure: In the PFK/PYK/LDH assay, the linked PYK activity acts to convert the ADP produced by PFK back to ATP. As ATP is an inhibitor of human PFK (but not TbPFK) at concentrations higher than ~0.5 mM the regeneration of ATP is likely to affect the assay readout. An alternative linked assay was therefore developed using PFK/aldolase (ALDO)/glycerol-3-phosphate dehydrogenase (G3PD)/triosephosphate isomerase (TIM). In this assay F16BP produced by PFK is subsequently converted by aldolase into dihydroxyacetone phosphate (DHAP) and glyceraldehyde 3-phosphate (GA3P). TIM interconverts GA3P and DHAP, and DHAP is reduced to glycerol 3-phosphate by G3PD, alongside the oxidation of NADH to NAD^+, which was measured by observing the change in UV absorbance at 340 nm for 10 minutes at 25° C using a Spectramax© M5 Multimode plate reader.
The assay buffer consisted of 50 mM TEA, 100 mM KCl, 10 mM MgCl2, 10% glycerol, 1 mM Tris(2-carboxyethyl)phosphine (TCEP), pH 7.4. Assay mix consisted of 5 U/ml G3PD (Sigma-Aldrich G6880), 2.5 U/ml ALDO (Sigma-Aldrich A2714), 25 U/ml TIM (Sigma-Aldrich T6258), and 1.25 mM NADH. ATP and F6P were obtained from Sigma-Aldrich (A2383 and F3627, respectively). All ligands and substrates (including ATP) were used at pH 7.4). 40 µl of assay mix, followed by 45 µl assay buffer, 4 µl of 0.1 mg/ml PFK and 1 µl of 100x serially diluted inhibitors were added to a non-binding, clear 96-well plate (Greiner Bio-One 655901) and incubated at RT for 10 minutes. The reaction was started by addition of 10 µl of 6 mM F6P (Supplementary Table 1).

CN(C)CCn1ccc2c(ccn2Cc2ccc(Cl)c(Cl)c2)c1=O [CTCB 405]
TbPFK reaction time course reading (Figure 6a) (1.29 uM CTCB 405, time 0.277778): 0.8008 and 0.7629
TbPFK reaction time course reading (Figure 6a) (1.29 uM CTCB 405, time 0.295139): 0.7991 and 0.762
TbPFK reaction time course reading (Figure 6a) (1.29 uM CTCB 405, time 0.3125): 0.7976 and 0.761
TbPFK reaction time course reading (Figure 6a) (1.29 uM CTCB 405, time 0.329861): 0.796 and 0.7587
TbPFK reaction time course reading (Figure 6a) (1.29 uM CTCB 405, time 0.347222): 0.7954 and 0.7588
TbPFK reaction time course reading (Figure 6a) (1.29 uM CTCB 405, time 0.364583): 0.7938 and 0.7583
TbPFK reaction time course reading (Figure 6a) (1.29 uM CTCB 405, time 0.381944): 0.7919 and 0.7571
TbPFK reaction time course reading (Figure 6a) (1.29 uM CTCB 405, time 0.399306): 0.7917 and 0.7553
TbPFK reaction time course reading (Figure 6a) (1.29 uM CTCB 405, time 0.416667): 0.7896 and 0.7548
TbPFK reaction time course reading (Figure 6a) (3.88 uM CTCB 405, time 0.0173611): 0.8137 and 0.7683
TbPFK reaction time course reading (Figure 6a) (3.88 uM CTCB 405, time 0.0347222): 0.8145 and 0.7686
TbPFK reaction time course reading (Figure 6a) (3.88 uM CTCB 405, time 0.0520833): 0.8155 and 0.7693
TbPFK reaction time course reading (Figure 6a) (3.88 uM CTCB 405, time 0.0694444): 0.8156 and 0.7696
TbPFK reaction time course reading (Figure 6a) (3.88 uM CTCB 405, time 0.0868056): 0.8168 and 0.7698
TbPFK reaction time course reading (Figure 6a) (3.88 uM CTCB 405, time 0.208333): 0.8183 and 0.7719
TbPFK reaction time course reading (Figure 6a) (3.88 uM CTCB 405, time 0.225694): 0.818 and 0.7716
TbPFK reaction time course reading (Figure 6a) (3.88 uM CTCB 405, time 0.243056): 0.8176 and 0.7712
TbPFK reaction time course reading (Figure 6a) (3.88 uM CTCB 405, time 0.260417): 0.8186 and 0.7717
TbPFK reaction time course reading (Figure 6a) (3.88 uM CTCB 405, time 0.277778): 0.8179 and 0.772
TbPFK reaction time course reading (Figure 6a) (3.88 uM CTCB 405, time 0.295139): 0.8179 and 0.772
TbPFK reaction time course reading (Figure 6a) (3.88 uM CTCB 405, time 0.3125): 0.8183 and 0.7709
TbPFK reaction time course reading (Figure 6a) (3.88 uM CTCB 405, time 0.329861): 0.8178 and 0.772
TbPFK reaction time course reading (Figure 6a) (3.88 uM CTCB 405, time 0.347222): 0.8175 and 0.7717
TbPFK reaction time course reading (Figure 6a) (3.88 uM CTCB 405, time 0.364583): 0.8172 and 0.7705
TbPFK reaction time course reading (Figure 6a) (3.88 uM CTCB 405, time 0.381944): 0.8177 and 0.771
TbPFK reaction time course reading (Figure 6a) (3.88 uM CTCB 405, time 0.399306): 0.8169 and 0.7714
TbPFK reaction time course reading (Figure 6a) (3.88 uM CTCB 405, time 0.416667): 0.8167 and 0.7713
TbPFK reaction time course reading (Figure 6a) (11.66 uM CTCB 405, time 0.0173611): 0.8163 and 0.771
TbPFK reaction time course reading (Figure 6a) (11.66 uM CTCB 405, time 0.0347222): 0.8163 and 0.7722
TbPFK reaction time course reading (Figure 6a) (11.66 uM CTCB 405, time 0.0520833): 0.817 and 0.772
TbPFK reaction time course reading (Figure 6a) (11.66 uM CTCB 405, time 0.0694444): 0.8178 and 0.7728
TbPFK reaction time course reading (Figure 6a) (11.66 uM CTCB 405, time 0.0868056): 0.8181 and 0.7732
TbPFK reaction time course reading (Figure 6a) (11.66 uM CTCB 405, time 0.208333): 0.8205 and 0.7747
TbPFK reaction time course reading (Figure 6a) (11.66 uM CTCB 405, time 0.225694): 0.8216 and 0.7752
TbPFK reaction time course reading (Figure 6a) (11.66 uM CTCB 405, time 0.243056): 0.8211 and 0.7762
TbPFK reaction time course reading (Figure 6a) (11.66 uM CTCB 405, time 0.260417): 0.8207 and 0.7762
TbPFK reaction time course reading (Figure 6a) (11.66 uM CTCB 405, time 0.277778): 0.8211 and 0.776
TbPFK reaction time course reading (Figure 6a) (11.66 uM CTCB 405, time 0.295139): 0.8216 and 0.7765
TbPFK reaction time course reading (Figure 6a) (11.66 uM CTCB 405, time 0.3125): 0.8212 and 0.776
TbPFK reaction time course reading (Figure 6a) (11.66 uM CTCB 405, time 0.329861): 0.821 and 0.7757
TbPFK reaction time course reading (Figure 6a) (11.66 uM CTCB 405, time 0.347222): 0.8222 and 0.7763
TbPFK reaction time course reading (Figure 6a) (11.66 uM CTCB 405, time 0.364583): 0.8222 and 0.777
TbPFK reaction time course reading (Figure 6a) (11.66 uM CTCB 405, time 0.381944): 0.8214 and 0.7765
TbPFK reaction time course reading (Figure 6a) (11.66 uM CTCB 405, time 0.399306): 0.8213 and 0.7761
TbPFK reaction time course reading (Figure 6a) (11.66 uM CTCB 405, time 0.416667): 0.8222 and 0.7767
TbPFK reaction time course reading (Figure 6a) (35 uM CTCB 405, time 0.0173611): 0.7756 and 0.7745
TbPFK reaction time course reading (Figure 6a) (35 uM CTCB 405, time 0.0347222): 0.7764 and 0.775
TbPFK reaction time course reading (Figure 6a) (35 uM CTCB 405, time 0.0520833): 0.7768 and 0.776
TbPFK reaction time course reading (Figure 6a) (35 uM CTCB 405, time 0.0694444): 0.7773 and 0.7765
TbPFK reaction time course reading (Figure 6a) (35 uM CTCB 405, time 0.0868056): 0.7775 and 0.7762
TbPFK reaction time course reading (Figure 6a) (35 uM CTCB 405, time 0.208333): 0.7795 and 0.7789
TbPFK reaction time course reading (Figure 6a) (35 uM CTCB 405, time 0.225694): 0.7795 and 0.7793
TbPFK reaction time course reading (Figure 6a) (35 uM CTCB 405, time 0.243056): 0.7796 and 0.7785
TbPFK reaction time course reading (Figure 6a) (35 uM CTCB 405, time 0.260417): 0.7799 and 0.779
TbPFK reaction time course reading (Figure 6a) (35 uM CTCB 405, time 0.277778): 0.7802 and 0.7796
TbPFK reaction time course reading (Figure 6a) (35 uM CTCB 405, time 0.295139): 0.7801 and 0.7781
TbPFK reaction time course reading (Figure 6a) (35 uM CTCB 405, time 0.3125): 0.7802 and 0.7793
TbPFK reaction time course reading (Figure 6a) (35 uM CTCB 405, time 0.329861): 0.7804 and 0.7797
TbPFK reaction time course reading (Figure 6a) (35 uM CTCB 405, time 0.347222): 0.7805 and 0.78
TbPFK reaction time course reading (Figure 6a) (35 uM CTCB 405, time 0.364583): 0.7804 and 0.7795
TbPFK reaction time course reading (Figure 6a) (35 uM CTCB 405, time 0.381944): 0.7807 and 0.7799
TbPFK reaction time course reading (Figure 6a) (35 uM CTCB 405, time 0.399306): 0.7808 and 0.7801
TbPFK reaction time course reading (Figure 6a) (35 uM CTCB 405, time 0.416667): 0.7806 and 0.7805

Reference: publication PMC7887271, “Fast acting allosteric phosphofructokinase inhibitors block trypanosome glycolysis and cure acute African trypanosomiasis in mice” (Nature Communications, 2021)
